Test results: PMC7002340
Results are given in words; binding and its absence hold for the method and conditions named. Binding seen in cells or lysates may run through a third protein. A yes stands for co-enrichment or nearness to the bait. Other partners may have been found. No binding means not detected with the bait.

Sequences of proteins named here, by UniProt entry; tags and fusion partners are left off. A change or cut given only in a name is not applied to a line headed by its entry.
UniProt S8F4K6: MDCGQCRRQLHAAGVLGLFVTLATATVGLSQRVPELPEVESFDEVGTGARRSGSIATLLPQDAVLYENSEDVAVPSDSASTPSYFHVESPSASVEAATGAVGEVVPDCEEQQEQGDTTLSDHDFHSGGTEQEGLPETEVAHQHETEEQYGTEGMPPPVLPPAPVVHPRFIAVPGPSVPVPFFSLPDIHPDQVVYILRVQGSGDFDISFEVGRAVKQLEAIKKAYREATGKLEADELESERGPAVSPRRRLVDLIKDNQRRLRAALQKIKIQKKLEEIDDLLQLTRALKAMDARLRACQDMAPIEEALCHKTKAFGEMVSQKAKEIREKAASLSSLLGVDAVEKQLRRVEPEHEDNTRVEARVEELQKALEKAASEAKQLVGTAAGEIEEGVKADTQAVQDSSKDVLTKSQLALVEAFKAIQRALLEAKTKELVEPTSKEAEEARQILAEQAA

T1: BPK1-BirA* (Toxoplasma gondii)
T1 sequence: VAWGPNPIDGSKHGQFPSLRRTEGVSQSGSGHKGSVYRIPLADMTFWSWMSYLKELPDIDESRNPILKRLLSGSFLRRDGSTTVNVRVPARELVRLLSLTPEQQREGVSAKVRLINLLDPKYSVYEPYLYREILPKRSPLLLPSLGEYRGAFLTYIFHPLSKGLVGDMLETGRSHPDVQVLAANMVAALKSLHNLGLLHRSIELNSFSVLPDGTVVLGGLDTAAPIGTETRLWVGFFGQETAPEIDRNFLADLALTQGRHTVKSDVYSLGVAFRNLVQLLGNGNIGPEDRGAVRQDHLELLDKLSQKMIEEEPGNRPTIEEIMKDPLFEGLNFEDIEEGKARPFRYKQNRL

B1: GRA7 (protein, UniProt O00933 27-236)
chain: ATASDDELMSRIRNSDFFDGQAPVDSLRPTNAGVDSKGTDDHLTTSMDKASVESQLPRREPLETEPDEQEEVHFRKRGVRSDAEVTDDNIYEEHTDRKVVPRKSEGKRSFKDLLKKLALPAVGMGASYFAADRLVPELTEEQQRGDEPLTTGQNVGTVLGFAALAAAAAFLGMGLTRTYRHFSPRKNRSRQPALEQEVPESGEDGEDARQ

Target: T1, BPK1-BirA* (Toxoplasma gondii)
Test: proximity labelling; BioID, group 1 baits (BirA*-3xHA at the C terminus) in Pru bradyzoites in HFF cells, 3 days pH 8.2 medium with 150 uM biotin; RIPA lysate, streptavidin agarose overnight at 4°C, RIPA and 8 M urea washes, LC-MS/MS; proteins of the untagged Pru sample filtered out; duplicates pooled

Molecule	binding
MAG1 (from UniProt S8F4K6)	no binding
B1	no binding
